# Measurements from patent publication US6544930B2, “Compact storage and shipping system for glyphosate herbicide” (Monsanto Technology LLC, priority 1998, dated 2003).
# Structures can show the parent of a compound that is named as a salt. For at least one compound, name, drawing or mass did not settle the structure.
# Assay: Maximum attainable surfactant concentration at 540 g a.e./l glyphosate
# Assay type: physicochemical
# Method: The maximum surfactant concentration attainable in practice in an aqueous concentrate composition containing glyphosate salt at 540 g a.e./l is compared for MEA and IPA salts. This is determined by adding a selected surfactant in increments to a 46% a.e. by weight aqueous solution of the glyphosate salt until the glyphosate weight/volume concentration falls from its initial level (565 g a.e./l for IPA salt, 602 g a.e./l for MEA salt) to 540 g a.e./l. The study is conducted using either Surfactant A or Surfactant F of Table 3 above. When the maximum attainable surfactant concentration is reached, viscosity is measured at 25° C.
smiles,measurement,value
"O=C(O)CNCP(=O)(O)O [glyphosate MEA salt, monoethanolammonium salt of glyphosate]",surfactant/glyphosate a.e. weight ratio,greater than 1:5
